Test results reported in paper PMC10931257.

By UniProt entry, the sequences of proteins in these tests, tags left out. Where a name states a change or a piece, a line headed by the entry shows the natural chain unless it says otherwise.
UniProt Q7YS82: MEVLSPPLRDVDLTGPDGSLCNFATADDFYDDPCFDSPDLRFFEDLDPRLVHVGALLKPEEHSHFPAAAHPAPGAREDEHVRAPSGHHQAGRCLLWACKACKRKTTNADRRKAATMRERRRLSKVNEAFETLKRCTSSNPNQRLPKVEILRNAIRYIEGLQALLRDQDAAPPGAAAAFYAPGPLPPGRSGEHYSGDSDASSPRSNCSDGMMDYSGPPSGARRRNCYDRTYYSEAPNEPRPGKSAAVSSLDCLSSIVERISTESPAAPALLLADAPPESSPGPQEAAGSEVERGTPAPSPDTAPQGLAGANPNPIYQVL
UniProt P27925: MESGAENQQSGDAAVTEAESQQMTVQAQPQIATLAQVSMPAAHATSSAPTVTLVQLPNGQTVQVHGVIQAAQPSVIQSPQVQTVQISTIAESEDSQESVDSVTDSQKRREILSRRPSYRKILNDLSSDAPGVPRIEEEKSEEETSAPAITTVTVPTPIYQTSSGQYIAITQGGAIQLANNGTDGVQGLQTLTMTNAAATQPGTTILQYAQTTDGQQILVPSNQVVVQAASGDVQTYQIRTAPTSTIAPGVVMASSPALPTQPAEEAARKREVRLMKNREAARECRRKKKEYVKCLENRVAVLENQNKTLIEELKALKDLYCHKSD

How the values were obtained:
[1] = target: MYOD1 (myogenic differentiation 1) (UniProt Q7YS82); test: EMSA supershift; details: anti-MYOD1, poly(dI-dC), unlabeled probe abolishes complex, EMSA: 10 ug nuclear extract, 5x binding buffer (composition and pH not given), 20 uL, 15 min on ice, then 200 fmol biotin probe 20 min at room temperature, protein in an extract, label: 5' biotin (unlabeled as competitor)
[2] = target: MYOD1 (myogenic differentiation 1) (UniProt Q7YS82); test: competition with a labelled probe; details: mutant competitor against labeled N1, complex minimally affected; EMSA: 10 ug nuclear extract, 5x binding buffer (composition and pH not given), poly(dI-dC), 20 uL, 15 min on ice, then 200 fmol biotin probe 20 min at room temperature; protein in an extract
[3] = target: CREB1 (cAMP response element binding protein 1) (UniProt P27925); test: competition with a labelled probe; details: mutant competitor against labeled N3, complex minimally affected; EMSA: 10 ug nuclear extract, 5x binding buffer (composition and pH not given), poly(dI-dC), 20 uL, 15 min on ice, then 200 fmol biotin probe 20 min at room temperature; protein in an extract
[4] = target: CREB1 (cAMP response element binding protein 1) (UniProt P27925); test: EMSA supershift; details: anti-CREB1, poly(dI-dC), unlabeled probe abolishes complex, EMSA: 10 ug nuclear extract, 5x binding buffer (composition and pH not given), 20 uL, 15 min on ice, then 200 fmol biotin probe 20 min at room temperature, protein in an extract, label: 5' biotin (unlabeled as competitor)

Sequence: AAGACCCGATTAGGCCTAGGCGGTGGTCGTCGGCTCCAATAGTCGAATC / GATTCGACTATTGGAGCCGAGCGGTGGTCGCTAGGCCTAATCGGGTCTT [MYOD1 probe (NCAPG promoter)]
- binding result [1]: binds

Sequence: CCAGCCGCAAGACCCGATTAGGCCTAGGCGGTGGTCGTCGGCTCCAATAGTCGAATCTC (double strand) [mMYOD1 mutant probe (NCAPG promoter)]
- binding result [2]: no binding

Sequence: CGATGTTGAAGGCGGTGGATTCATGAGAAGGTCGACTCGCCGCTCTACGCACTCGCGGT (double strand) [mCREB1 mutant probe (NCAPG promoter)]
- binding result [3]: no binding

Sequence: ATGTTGAAGGCGGTGGATTCAAGAGAAGGTCACTCGCCGCTCTACGCACTCGC / GCGAGTGCGTAGAGCGGCGAGAGAGAAGGTCATGAATCCACCGCCTTCAACAT [CREB1 probe (NCAPG promoter)]
- binding result [4]: binds

For at least one entry, the source does not settle the construct or the ends of the probe. At least one result comes from cells or an extract, where the contact may be indirect. For some of these results: A negative result means that nothing was seen under these conditions.
